This is an account of results in PubChem BioAssay AID1347423 (Functional Genomics Laboratory (NCATS/FGL), 2020).

About 210 (0.4%) of roughly 52,000 sequences were called active.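 The calls were made as follows: active = gene whose silencing raises cell survival under the drug, median off-target-corrected z-score across its silencing RNAs 2 or more; inactive = the rest.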 The list shows a part of the results.

The nature of this assay: Resistance to Poly (ADP-Ribose) Polymerase inhibitor: Gene Identification via Genome-wide siRNA Screen. The following applies: mouse BRCA2 R2336H ES cells, olaparib, CellTiter-Glo viability; stronger effect = higher value. An outline of the steps: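 Mouse BRCA2 R2336H ES cells were reverse-transfected with siRNA (20 nM final), treated at 48 h with 500 nM olaparib, and read by CellTiter-Glo after 72 h. Scores: MAD-based z per siRNA, median per gene, seed off-target correction.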
For orientation: Cellular ATP, detected with luciferase, serves as a proxy for viable cell number.
Take GCCAGAAAGAUUCCUUCCUTT against Olfr1419: the z-score is inactive: -1.47. With GCUGUCAGACUAAAGAUAUTT against Mmd, the z-score was inactive: -0.0545. With “GGAUAACUCCUUAUUUAACTT against 2310042E22Rik”, the z-score is inactive: 0.797. With “GGAACCUCCUUAUUCAAUGTT against 4930470D19Rik”, the z-score was inactive: -1.59.

Consider GGACCUGGUCACCAUCUUGTT against Tram2, for which the z-score is inactive: 0.873. Regarding GCUGGGAAGGUGACGUAAUTT against AA959742, the z-score was inactive: 0.647. As for GGUCACCAAAGUGAAAACATT against Ndufa8, the z-score was inactive: 0.655.

With “GGGAUAUUGUUUUUUACAGTT against B230114J08Rik”, the z-score is inactive: -0.778. On to GGAUCAUAGUUACAAGGCUTT against L3mbtl2, for which the z-score was inactive: 0.583. On to “CCUACUUCCUCCAUUUAGGTT against 5033413D22Rik”, for which the z-score was inactive: 1.42.

Consider CCCACUCCGAUAUACUGCUTT against Olfr447, for which the z-score was inactive: 0.895.

As for GGAACACCAUCAUCAGUCATT against Ephb2, the z-score was inactive: -0.442. Consider GGCACAAUUUCUUUGAAUCTT against Ophn1, for which the z-score was inactive: 0.000868. Turning to GGCCAUGAUUGAGAAGCUATT against Smtn, the z-score is inactive: -0.0798. Then “GGUGUCGAAGAUCACGUCATT against D10Bwg1364e”, with inactive: -2.24. Then “GCAAAGAUCUUUGAGUAAGTT against 4632415L05Rik”, with inactive: -0.718.

Regarding GCAGGCGAUAUAGAAGCAATT against Frg1, the z-score is inactive: -2.08. Regarding “GGUAUGCAUUCCAGAAAUATT against 4933409N07Rik”, the z-score was inactive: 0.411. With GGUCUAUCCCAUCAUGCCUTT against Clcnka, the z-score is inactive: 0.645. To GGCUUUCACUGAAGAUCUUTT against Fancg belongs inactive: 1.18. Take AACACUGGGUACAUCUACATT against H2-Q7: the z-score is inactive: 0.694. As to “GGAUGAGAAUAGUGCUAAATT against 4933432P15Rik”, the z-score was inactive: -0.216. GGACAAUGCAGUGCUGAAATT against Car2: the z-score was inactive: -0.591. To CCAAAACGGAGAAAAUCAGTT against Ccar1 belongs inactive: 1.22; to GGUUAUCAUACUUUUUGUGTT against Phf10, inactive: 0.0269. To CCUCCUAUGUCUUCCUCAUTT against Olfr1173 belongs inactive: -0.136; to “CCUAGUAGUUGACCAUAUATT against 4732421G10Rik”, inactive: -0.16.

With GCCUGGCUGACGAUAUAGATT against Golga2, the z-score is inactive: 1.16. GUUACCACACCAAAAAUGGTT against Olfr1299: the z-score is inactive: -0.314. In the case of “GGUGUACCUUGGGACUUACTT against 2810441A10Rik”, the z-score was inactive: -0.555. Consider “GGAGCAUUUAAAAGUUCCATT against 6430514L14Rik”, for which the z-score was inactive: -0.31. Consider GACUACAAAGGAGAGCAAATT against Igfbp6, for which the z-score is inactive: 2. As for GGCUUUUAAGUUCUUCCAGTT against Rod1, the z-score is inactive: -0.557. Consider GGCAUUCAGUGUUGCGUACTT against Apba1, for which the z-score was inactive: 0.905. As for GGAUUCCAGAGAAAUGUGATT against BC031901, the z-score is inactive: -0.236. For the sequence GGUGAUGAUCCCAUGGGUUTT against Ube2g2, the z-score is inactive: -1.04. With AUUCUCUGGUUCAAGCUACTT against Olfr223, the z-score was inactive: -0.522.

GGAACAACUUCGAACAUAATT against Dok3: the z-score was inactive: -3.1. Consider GGAGAAAAACAAAAACCAATT against Fliih, for which the z-score was inactive: -1.39.

With GGGCAGUAAGACCUUCAUGTT against Dhcr24, the z-score was inactive: 1.62. As to CCUGAAUACCAUGACAUGUTT against Tfpi2, the z-score was inactive: -0.48.

Regarding CGUGGUUAAGUUUGCUGGGTT against P2rx3, the z-score is inactive: -0.11. GGCAGAGUGCAUUUUGCUATT against Ptpn5: the z-score is inactive: -0.352.

Turning to “GCAUAAAGCAAGGUUGAGUTT against D7Ertd458e”, the z-score is inactive: 0.483. As for GGCCCUGUGAUAUUUCUCGTT against Pax8, the z-score was inactive: -1.31. For the sequence GGGCAAAGACAUUUUGUAUTT against Nt5c2, the z-score is inactive: 0.606. CGGACUUCAAGGACAAGAUTT against Carm1: the z-score was inactive: 0.0425. On to CCUUUGUAAAGACUACUUATT against Ssh2, for which the z-score is inactive: 0.403.

For GGCUACAAACUUCAAGAAATT against Cel, the z-score is inactive: -0.0479. Consider GCCGAAUAUUUCGGAGCCATT against Ropn1, for which the z-score is inactive: -3.06. Consider GGCAGAGAAAGAGCUAAAGTT against Dtx3, for which the z-score was inactive: 3.63.

Consider GCCGAGGCUGUUGUGUUGATT against Gpaa1, for which the z-score was inactive: 1.09. Regarding “GGAGGUCAGUAGCUUCCUUTT against 2310002B14Rik”, the z-score is inactive: 0.208. As to “GCCAACGAGAGUAAACACGTT against 5930403N24Rik”, the z-score was inactive: 0.0348. Take GCAUCAUACCACUGUGUUUTT against Obox1: the z-score was inactive: -1.18.

Turning to GGAUUAUGGUCCAAAUAAATT against Hpcal4, the z-score is inactive: -1.33. Consider CCAUGUUUUCCGCUUCAAUTT against Kif1c, for which the z-score was inactive: 0.202.

Consider CCAUCCCAUUUAAUGGAUGTT against Olfr1257, for which the z-score is inactive: 0.686. Turning to GGAGGUCCAACUAAGACACTT against Fzd8, the z-score is inactive: -0.057. Consider “GCCCUACGGACAAACAGCATT against 6330581L23Rik”, for which the z-score is inactive: 0.139. Then “CCUUCUUGCUCACAAAGUATT against C030030G16Rik”, with inactive: -0.729; and “CCAUCUUCAACGAAACCUATT against 1700013E18Rik”, with inactive: 2.12. On to GGUCACGUGCAGUUAUAUCTT against Rab32, for which the z-score was inactive: 0.0398.

As for GGACCUUCCGUGAGAUUAUTT against BC048082, the z-score is inactive: 0.215. On to GGUGGCUAUGUAAUCUCAGTT against BC025206, for which the z-score is inactive: 2.82. For GGUGCAUUACAAAUACACATT against Ncf2, the z-score is inactive: -0.0444.
